Values from PubChem BioAssay AID652259 (Drosophila RNAi Screening Center, 2013)
In all, the deposit lists about 22,000 reagents; shown is a random part of those that have a named target and a result. In the full data, 233 (1.1%) are marked active. 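Light values are raw, unnormalised plate reads; the ratio scores behind the reporter calls were not deposited.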 Entries without a mark were called inactive. Not given: the amount of reagent, the time to read-out, the dose of the treatment.

Screen: 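Identify new Wingless signalling regulators in fly cells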 (primary screen)
System: Drosophila clone 8 imaginal disc epithelial cells
Knock-down reagent: long dsRNA against Drosophila genes
Conditions: pathway stimulated by co-transfected Wingless expression plasmid
Measurement: 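Dual luciferase reads per well after Wingless plasmid stimulation: reporter firefly light and Renilla control light; activity is firefly divided by Renilla, a ratio not deposited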
Scale: firefly reporter light: higher = more Wg reporter light, before normalisation; Renilla control light: higher = more transfected or surviving cells
Rule for the call: 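Strong candidates differ from their plate mean by at least two out of four per-plate statistical tests; weak candidates meet just one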
Calls: active = candidate regulator (raises or lowers reporter); inactive = not a candidate

After knock-down of CG4461 [DRSC10423], the record shows firefly reporter light, replicate 1 = 5585; Renilla control light, replicate 1 = 2336. Silencing of CG6015 [DRSC15948] gave: firefly reporter light, replicate 1 = 7723; firefly reporter light, replicate 2 = 8794; Renilla control light, replicate 1 = 1296; Renilla control light, replicate 2 = 1448. Silencing of CG33689 [DRSC09424] gave: firefly reporter light, replicate 1 = 3504; Renilla control light, replicate 1 = 1714. Against Tsp42El (Tetraspanin 42El) [DRSC06186], the values are firefly reporter light, replicate 1 = 16928; Renilla control light, replicate 1 = 4867. For CG5435 [DRSC02860] the deposit lists firefly reporter light, replicate 1 = 2915; firefly reporter light, replicate 2 = 7280; Renilla control light, replicate 1 = 1196; Renilla control light, replicate 2 = 2934. After knock-down of CG13044 [DRSC09925], the screen gave firefly reporter light, replicate 1 = 7763; Renilla control light, replicate 1 = 3969.

Against CG6271 [DRSC16006] the deposit lists firefly reporter light, replicate 1 = 3821; firefly reporter light, replicate 2 = 8594; Renilla control light, replicate 1 = 928; Renilla control light, replicate 2 = 2080. Depletion of drosha [DRSC07607] resulted in: firefly reporter light, replicate 1 = 4380; Renilla control light, replicate 1 = 1792. Depletion of Aasdh (Aminoadipate-semialdehyde dehydrogenase) [DRSC03467] came out at: firefly reporter light, replicate 1 = 2545; firefly reporter light, replicate 2 = 5884; Renilla control light, replicate 1 = 828; Renilla control light, replicate 2 = 2587. For CG42854 [DRSC19173] the deposit lists firefly reporter light, replicate 1 = 4518; Renilla control light, replicate 1 = 1400. After knock-down of CG10587 [DRSC11627], the screen gave firefly reporter light, replicate 1 = 10486; Renilla control light, replicate 1 = 5051. Depletion of CG42458 [DRSC08881] gave: firefly reporter light, replicate 1 = 2131; Renilla control light, replicate 1 = 573.

Silencing of CG42458 [DRSC10335] gave: firefly reporter light, replicate 1 = 5376; Renilla control light, replicate 1 = 726. Against Flacc (Fl(2)d-associated complex component) [DRSC20040], the entry reads firefly reporter light, replicate 1 = 1932; firefly reporter light, replicate 2 = 6781; Renilla control light, replicate 1 = 1147; Renilla control light, replicate 2 = 2672. gskt (gasket) [DRSC14056] scored firefly reporter light, replicate 1 = 3420; Renilla control light, replicate 1 = 1317. asun (asunder) [DRSC16733] scored firefly reporter light, replicate 1 = 3849; firefly reporter light, replicate 2 = 7170; Renilla control light, replicate 1 = 1653; Renilla control light, replicate 2 = 2881. After knock-down of Rcd5 (Reduction in Cnn dots 5) [DRSC08180], the record shows firefly reporter light, replicate 1 = 5274; Renilla control light, replicate 1 = 1121. CG34384 [DRSC12642] gave firefly reporter light, replicate 1 = 4242; Renilla control light, replicate 1 = 1792.

Silencing of CG34384 [DRSC12644] resulted in: firefly reporter light, replicate 1 = 4786; Renilla control light, replicate 1 = 2032. After knock-down of CG34384 [DRSC14855], the screen gave firefly reporter light, replicate 1 = 16624; Renilla control light, replicate 1 = 3576. Depletion of CG34384 [DRSC15444] resulted in: firefly reporter light, replicate 1 = 21929; Renilla control light, replicate 1 = 6485. For CG34384 [DRSC16575], the entry reads firefly reporter light, replicate 1 = 15977; Renilla control light, replicate 1 = 4729. For Cpr100A (Cuticular protein 100A) [DRSC14465], the entry reads firefly reporter light, replicate 1 = 9329; Renilla control light, replicate 1 = 2816. With knock-down of Octalpha2R (alpha2-adrenergic-like octopamine receptor) [DRSC13319], the record shows firefly reporter light, replicate 1 = 3328; Renilla control light, replicate 1 = 1019.

Octalpha2R (alpha2-adrenergic-like octopamine receptor) [DRSC15314] gave firefly reporter light, replicate 1 = 8989; Renilla control light, replicate 1 = 1754.

Single entries from above:
Result for Octalpha2R (alpha2-adrenergic-like octopamine receptor) [DRSC15314] in “firefly reporter light, replicate 1”: 8989
CG34384 [DRSC16575], firefly reporter light, replicate 1 = 15977
CG42458 [DRSC10335], firefly reporter light, replicate 1 = 5376
